These results are taken from article PMC9728307 (Journal of Microbiology and Biotechnology, 2020).

Counter-ions that a name gives are not always drawn. Like-named read-outs stand apart in the source and are kept apart here.

The test has as its system SARS-CoV-2. Briefly: microbe, parasite or virus in culture. To be noted: for Selectivity Index (SI): CC50/IC50; for IC50: Severe acute respiratory syndrome coronavirus 2, Vero, 24 h, read-out: IC50 antiviral activity. In kind it is cell-based.

Turning to `CN(C)C(=O)C(CCN1CCC(O)(c2ccc(Cl)cc2)CC1)(c1ccccc1)c1ccccc1` [Loperamide hydrochloride], the half-maximal inhibitory concentration (IC50) came to 14.8 µM. Besides, the “Selectivity Index (SI)” value (compounds from secondary screening) is more than 3.4.
On to `Fc1ccc(C(c2ccc(F)cc2)N2CCN(C/C=C/c3ccccc3)CC2)cc1` [Flunarizine], for which, for the setting “compounds from primary screening”, the “Selectivity Index (SI)” value is reported as more than 18.9. The IC50 (Vero cells, MOI 2, 24 h post-infection, compounds from primary screening, 100 μM to 0.16 μM) was 5.3 µM.
